Test results from the supplement of paper PMC10849652.
The other results are listed elsewhere or left out.

The chains behind the UniProt entries cited, without tags or fusion partners. Where a name states a change or a piece, a line headed by the entry shows the natural chain unless it says otherwise.
UniProt Q6DKK2: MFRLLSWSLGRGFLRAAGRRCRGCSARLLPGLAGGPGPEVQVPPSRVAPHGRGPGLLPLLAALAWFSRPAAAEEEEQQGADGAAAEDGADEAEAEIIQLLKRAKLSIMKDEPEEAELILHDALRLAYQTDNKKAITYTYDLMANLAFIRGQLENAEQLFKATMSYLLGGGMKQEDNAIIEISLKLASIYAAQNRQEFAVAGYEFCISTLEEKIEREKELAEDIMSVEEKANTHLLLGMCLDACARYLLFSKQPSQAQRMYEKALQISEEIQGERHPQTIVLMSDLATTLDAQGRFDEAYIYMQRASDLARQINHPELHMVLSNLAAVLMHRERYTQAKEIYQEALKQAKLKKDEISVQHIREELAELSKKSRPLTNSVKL
UniProt Q8TBZ6: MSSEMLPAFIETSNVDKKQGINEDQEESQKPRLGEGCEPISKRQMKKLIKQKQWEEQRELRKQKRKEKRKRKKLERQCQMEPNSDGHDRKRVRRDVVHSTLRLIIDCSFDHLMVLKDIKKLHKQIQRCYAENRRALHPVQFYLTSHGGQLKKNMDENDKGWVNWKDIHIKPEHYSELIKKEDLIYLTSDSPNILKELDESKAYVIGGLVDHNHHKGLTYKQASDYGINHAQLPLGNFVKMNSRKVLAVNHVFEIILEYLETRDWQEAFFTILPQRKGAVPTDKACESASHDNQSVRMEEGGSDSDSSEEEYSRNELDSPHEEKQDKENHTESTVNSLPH
UniProt Q6PID6, whole entry, looked up: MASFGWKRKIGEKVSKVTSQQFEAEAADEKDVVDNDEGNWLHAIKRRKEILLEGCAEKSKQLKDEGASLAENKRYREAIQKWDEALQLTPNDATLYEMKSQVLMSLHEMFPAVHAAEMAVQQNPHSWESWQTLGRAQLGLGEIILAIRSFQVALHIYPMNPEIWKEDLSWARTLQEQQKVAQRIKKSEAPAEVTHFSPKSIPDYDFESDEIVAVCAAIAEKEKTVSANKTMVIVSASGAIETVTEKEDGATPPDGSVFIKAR
UniProt A5PLN9: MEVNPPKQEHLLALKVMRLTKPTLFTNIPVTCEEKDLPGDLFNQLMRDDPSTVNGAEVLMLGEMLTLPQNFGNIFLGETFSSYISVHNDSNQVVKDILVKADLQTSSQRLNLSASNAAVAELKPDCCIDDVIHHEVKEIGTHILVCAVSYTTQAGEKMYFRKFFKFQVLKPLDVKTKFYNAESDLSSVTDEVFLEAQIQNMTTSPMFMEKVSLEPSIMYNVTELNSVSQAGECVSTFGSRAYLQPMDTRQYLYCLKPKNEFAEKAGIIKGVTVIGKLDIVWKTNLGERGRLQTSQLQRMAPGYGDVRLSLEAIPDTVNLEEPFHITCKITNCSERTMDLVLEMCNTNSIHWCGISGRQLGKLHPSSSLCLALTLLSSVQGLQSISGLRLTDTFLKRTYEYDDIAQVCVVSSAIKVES
UniProt Q13630: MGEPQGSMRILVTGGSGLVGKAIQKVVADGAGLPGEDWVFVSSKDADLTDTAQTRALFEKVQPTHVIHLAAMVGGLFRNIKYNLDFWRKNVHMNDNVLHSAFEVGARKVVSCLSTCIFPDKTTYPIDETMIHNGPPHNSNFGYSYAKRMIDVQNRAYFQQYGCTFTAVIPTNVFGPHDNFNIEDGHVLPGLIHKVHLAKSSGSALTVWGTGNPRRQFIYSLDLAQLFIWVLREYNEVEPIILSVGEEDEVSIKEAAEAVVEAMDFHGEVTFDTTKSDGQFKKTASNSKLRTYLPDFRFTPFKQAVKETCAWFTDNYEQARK
UniProt Q2NL82: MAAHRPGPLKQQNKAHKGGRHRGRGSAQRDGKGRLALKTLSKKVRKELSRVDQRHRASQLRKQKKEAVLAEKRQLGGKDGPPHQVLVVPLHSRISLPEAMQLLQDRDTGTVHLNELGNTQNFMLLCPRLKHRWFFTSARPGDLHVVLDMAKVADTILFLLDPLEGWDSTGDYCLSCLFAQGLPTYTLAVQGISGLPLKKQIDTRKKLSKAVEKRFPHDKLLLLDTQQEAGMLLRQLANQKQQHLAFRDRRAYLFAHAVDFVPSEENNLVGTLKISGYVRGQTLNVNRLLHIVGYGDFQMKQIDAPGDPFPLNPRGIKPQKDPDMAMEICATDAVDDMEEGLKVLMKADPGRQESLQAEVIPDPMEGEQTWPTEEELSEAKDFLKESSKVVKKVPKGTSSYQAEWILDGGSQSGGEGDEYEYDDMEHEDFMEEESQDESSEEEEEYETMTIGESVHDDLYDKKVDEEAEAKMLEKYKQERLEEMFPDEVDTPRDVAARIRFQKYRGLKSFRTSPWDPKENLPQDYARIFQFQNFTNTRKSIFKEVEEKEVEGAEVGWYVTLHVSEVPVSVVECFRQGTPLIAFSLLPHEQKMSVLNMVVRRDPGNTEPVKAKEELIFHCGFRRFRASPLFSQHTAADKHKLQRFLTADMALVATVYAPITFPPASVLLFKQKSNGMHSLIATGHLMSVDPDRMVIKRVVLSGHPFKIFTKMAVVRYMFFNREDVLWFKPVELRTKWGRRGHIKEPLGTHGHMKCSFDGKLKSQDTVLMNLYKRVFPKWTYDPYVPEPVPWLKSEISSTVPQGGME
UniProt O43617, whole entry, looked up: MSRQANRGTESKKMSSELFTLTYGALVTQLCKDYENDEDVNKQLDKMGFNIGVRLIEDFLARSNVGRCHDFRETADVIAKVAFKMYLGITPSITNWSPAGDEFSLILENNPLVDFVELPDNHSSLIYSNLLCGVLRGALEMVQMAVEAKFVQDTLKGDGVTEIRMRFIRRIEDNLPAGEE
UniProt Q96DX7: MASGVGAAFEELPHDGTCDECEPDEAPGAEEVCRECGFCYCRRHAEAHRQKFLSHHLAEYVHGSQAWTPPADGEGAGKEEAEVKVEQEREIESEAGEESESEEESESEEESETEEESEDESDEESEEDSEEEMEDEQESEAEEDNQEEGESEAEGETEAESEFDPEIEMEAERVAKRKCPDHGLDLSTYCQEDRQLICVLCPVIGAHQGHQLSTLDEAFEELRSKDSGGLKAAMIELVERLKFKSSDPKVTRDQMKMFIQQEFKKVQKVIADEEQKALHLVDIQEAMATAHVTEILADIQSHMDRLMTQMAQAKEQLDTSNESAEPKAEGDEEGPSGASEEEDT
UniProt Q7Z6J9: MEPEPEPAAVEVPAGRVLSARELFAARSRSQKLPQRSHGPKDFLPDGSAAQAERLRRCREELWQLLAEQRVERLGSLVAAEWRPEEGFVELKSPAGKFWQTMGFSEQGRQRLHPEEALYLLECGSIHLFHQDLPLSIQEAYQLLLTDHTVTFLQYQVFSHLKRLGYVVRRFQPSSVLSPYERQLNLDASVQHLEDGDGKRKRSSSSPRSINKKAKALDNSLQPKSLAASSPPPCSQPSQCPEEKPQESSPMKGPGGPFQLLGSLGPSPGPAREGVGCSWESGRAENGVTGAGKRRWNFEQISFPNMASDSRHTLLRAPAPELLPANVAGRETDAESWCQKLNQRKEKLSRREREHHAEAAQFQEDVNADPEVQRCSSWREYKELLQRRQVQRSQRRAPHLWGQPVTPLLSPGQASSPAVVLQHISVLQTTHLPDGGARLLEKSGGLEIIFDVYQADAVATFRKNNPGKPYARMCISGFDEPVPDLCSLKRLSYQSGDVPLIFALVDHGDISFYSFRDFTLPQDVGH
UniProt Q9UNY4: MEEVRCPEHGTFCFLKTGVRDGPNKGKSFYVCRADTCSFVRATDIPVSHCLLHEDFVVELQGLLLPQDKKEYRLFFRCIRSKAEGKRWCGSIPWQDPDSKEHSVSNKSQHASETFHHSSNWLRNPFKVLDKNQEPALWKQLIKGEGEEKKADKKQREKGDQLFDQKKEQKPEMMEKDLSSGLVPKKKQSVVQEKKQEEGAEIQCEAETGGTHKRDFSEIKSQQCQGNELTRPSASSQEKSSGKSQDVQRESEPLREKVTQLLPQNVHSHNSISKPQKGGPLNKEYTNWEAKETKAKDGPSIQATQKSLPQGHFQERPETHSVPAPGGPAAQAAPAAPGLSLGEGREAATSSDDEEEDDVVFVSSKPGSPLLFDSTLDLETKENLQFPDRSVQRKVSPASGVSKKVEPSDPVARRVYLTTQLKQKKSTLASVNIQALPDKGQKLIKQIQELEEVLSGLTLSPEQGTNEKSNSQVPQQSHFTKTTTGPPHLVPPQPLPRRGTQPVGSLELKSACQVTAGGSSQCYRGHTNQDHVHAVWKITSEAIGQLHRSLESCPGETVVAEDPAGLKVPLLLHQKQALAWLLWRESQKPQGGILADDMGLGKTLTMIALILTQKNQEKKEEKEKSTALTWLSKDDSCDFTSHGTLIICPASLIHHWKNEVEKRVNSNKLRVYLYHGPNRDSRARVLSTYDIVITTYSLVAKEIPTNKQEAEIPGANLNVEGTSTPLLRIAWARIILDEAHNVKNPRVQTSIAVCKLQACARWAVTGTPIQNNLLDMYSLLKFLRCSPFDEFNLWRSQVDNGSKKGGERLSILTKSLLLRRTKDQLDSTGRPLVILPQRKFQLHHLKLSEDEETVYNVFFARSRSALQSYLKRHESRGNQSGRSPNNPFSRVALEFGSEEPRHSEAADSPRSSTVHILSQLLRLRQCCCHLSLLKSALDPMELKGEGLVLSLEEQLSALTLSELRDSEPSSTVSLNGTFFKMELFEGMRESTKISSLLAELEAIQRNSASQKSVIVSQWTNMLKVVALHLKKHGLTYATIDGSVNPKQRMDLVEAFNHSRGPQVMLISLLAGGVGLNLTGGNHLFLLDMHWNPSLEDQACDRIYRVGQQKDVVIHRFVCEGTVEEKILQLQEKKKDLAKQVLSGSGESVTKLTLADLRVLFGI
UniProt Q96AE7: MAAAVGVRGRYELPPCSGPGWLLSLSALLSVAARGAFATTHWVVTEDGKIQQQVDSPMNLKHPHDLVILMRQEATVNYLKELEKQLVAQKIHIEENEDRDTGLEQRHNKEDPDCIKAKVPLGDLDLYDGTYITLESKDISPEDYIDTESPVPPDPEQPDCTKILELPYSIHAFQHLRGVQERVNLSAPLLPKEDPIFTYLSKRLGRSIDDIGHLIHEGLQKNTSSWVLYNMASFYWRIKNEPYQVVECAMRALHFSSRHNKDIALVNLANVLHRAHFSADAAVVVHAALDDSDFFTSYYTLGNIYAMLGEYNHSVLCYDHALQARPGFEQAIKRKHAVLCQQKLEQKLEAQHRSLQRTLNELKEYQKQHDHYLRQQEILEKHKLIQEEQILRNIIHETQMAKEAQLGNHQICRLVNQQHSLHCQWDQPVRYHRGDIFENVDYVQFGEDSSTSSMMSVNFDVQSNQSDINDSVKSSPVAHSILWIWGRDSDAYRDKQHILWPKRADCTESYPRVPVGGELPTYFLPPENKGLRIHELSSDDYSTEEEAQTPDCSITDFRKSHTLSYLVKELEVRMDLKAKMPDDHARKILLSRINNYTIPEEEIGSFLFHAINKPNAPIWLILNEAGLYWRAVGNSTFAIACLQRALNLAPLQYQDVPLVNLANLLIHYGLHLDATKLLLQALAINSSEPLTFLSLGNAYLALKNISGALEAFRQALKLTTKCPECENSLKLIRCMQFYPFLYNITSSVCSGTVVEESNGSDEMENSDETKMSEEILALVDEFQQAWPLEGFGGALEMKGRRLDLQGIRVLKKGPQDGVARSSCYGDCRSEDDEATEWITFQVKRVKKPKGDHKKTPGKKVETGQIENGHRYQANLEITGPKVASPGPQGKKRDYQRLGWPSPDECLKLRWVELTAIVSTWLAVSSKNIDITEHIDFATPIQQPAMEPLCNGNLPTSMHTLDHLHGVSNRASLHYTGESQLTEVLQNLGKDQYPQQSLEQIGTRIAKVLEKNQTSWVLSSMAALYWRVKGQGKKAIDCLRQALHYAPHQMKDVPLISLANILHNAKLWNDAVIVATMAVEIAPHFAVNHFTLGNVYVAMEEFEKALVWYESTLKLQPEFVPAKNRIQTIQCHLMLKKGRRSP
UniProt Q12933: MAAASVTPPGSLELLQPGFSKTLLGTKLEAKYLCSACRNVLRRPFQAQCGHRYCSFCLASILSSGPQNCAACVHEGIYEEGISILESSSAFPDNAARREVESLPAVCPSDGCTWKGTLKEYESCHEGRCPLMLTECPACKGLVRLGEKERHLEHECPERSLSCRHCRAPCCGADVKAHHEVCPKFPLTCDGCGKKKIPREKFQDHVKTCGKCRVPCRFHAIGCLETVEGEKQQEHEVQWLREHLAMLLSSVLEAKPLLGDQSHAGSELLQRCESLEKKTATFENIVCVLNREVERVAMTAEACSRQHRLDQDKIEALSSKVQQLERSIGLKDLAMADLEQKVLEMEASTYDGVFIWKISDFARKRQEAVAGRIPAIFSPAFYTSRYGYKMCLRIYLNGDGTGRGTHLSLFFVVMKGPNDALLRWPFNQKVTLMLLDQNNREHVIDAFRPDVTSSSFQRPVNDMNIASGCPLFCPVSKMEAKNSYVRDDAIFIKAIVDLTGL

Key:
Assay in all cases: log2 fold change, soluble protein after heating vs DMSO (PISA); higher = thermal stabilisation; K562 lysate, 10 uM; active = over 0.2 and 3.5 SD of the protein, either way, in both replicates (recomputed)
nilotinib = compound: Cc1cn(-c2cc(NC(=O)c3ccc(C)c(Nc4nccc(-c5cccnc5)n4)c3)cc(C(F)(F)F)c2)cn1 [nilotinib]
In short: (§1)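 The values are log-two fold changes in thermal stability compared with solvent controls and come from duplicates. They were obtained by TMTpro 16plex LC-MS/MS, with channel sums equalised, on the supernatant after 21,000xg for 90 min. That supernatant came from crude K562 extract at 1 mg/mL protein treated with 10 μM compound for 30 min, heated for 3 min across 48°C-58°C, pooled and brought to 0.5% NP-40 at 4°C.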

[1] = compound: Cc1nc(Nc2n[nH]c3c2CN(C(=O)N[C@H](CN(C)C)c2ccccc2)C3(C)C)c2sccc2n1
In short: as §1

dasatinib = compound: Cc1nc(Nc2ncc(C(=O)Nc3c(C)cccc3Cl)s2)cc(N2CCN(CCO)CC2)n1 [dasatinib]
In short: as §1

[2] = compound: Cc1ncc(-c2ccnc(Nc3ccc(S(C)(=O)=O)cc3)n2)n1C(C)C
In short: as §1

[3] = compound: Cn1cc(-c2ccc3c(c2)CCN3C(=O)Cc2cccc(C(F)(F)F)c2)c2c(N)ncnc21
In short: as §1

quisinostat = compound: Cn1cc(CNCC2CCN(c3ncc(C(=O)NO)cn3)CC2)c2ccccc21 [quisinostat]
In short: as §1

tipifarnib = compound: Cn1cncc1[C@@](N)(c1ccc(Cl)cc1)c1ccc2c(c1)c(-c1cccc(Cl)c1)cc(=O)n2C [tipifarnib]
In short: as §1

[4] = compound: NC(=O)Nc1cc(-c2cccc(F)c2)sc1C(=O)N[C@H]1CCCNC1
In short: as §1

[5] = compound: NC(=O)c1cnc(N[C@@H]2CCCC[C@@H]2N)nc1Nc1cccc(-n2nccn2)c1
In short: as §1

[6] = compound: NC1(c2ccc(-c3nc4ccn5c(=O)[nH]nc5c4cc3-c3ccccc3)cc2)CCC1
In short: as §1

[7] = compound: NCC(=O)Nc1ccc(-n2nc(C(F)(F)F)cc2-c2ccc3c(ccc4ccccc43)c2)cc1
In short: as §1

vorinostat = compound: O=C(CCCCCCC(=O)Nc1ccccc1)NO [vorinostat]
In short: as §1

silmitasertib = compound: O=C(O)c1ccc2c(c1)nc(Nc1cccc(Cl)c1)c1ccncc12 [silmitasertib]
In short: as §1

[8] = compound: O=C1NC(=O)C(c2cnc3ccccn23)=C1c1cn2c3c(cc(F)cc13)CN(C(=O)N1CCCCC1)CC2
In short: as §1

entospletinib = compound: c1cn2cc(-c3ccc4cn[nH]c4c3)nc(Nc3ccc(N4CCOCC4)cc3)c2n1 [entospletinib]
In short: as §1

Measured: log2 fold change

TRNAU1AP (UniProt Q9NX07)
inactive: nilotinib -0.145 | [1] 0.016 | dasatinib 0.018 | [2] 0.046 | [3] 0.015 | quisinostat 0.012 | tipifarnib -0.06 | [4] 0.059 | [5] -0.011 | [6] -0.013 | [7] 0.079 | vorinostat -0.178 | silmitasertib 0.026 | [8] -0.017 | entospletinib -0.047

TTC19 (UniProt Q6DKK2)
inactive: nilotinib 0.035 | [1] -0.095 | dasatinib 0.006 | [2] 0.001 | [3] 0.02 | quisinostat -0.095 | tipifarnib -0.038 | [4] -0.004 | [5] 0.034 | [6] -0.023 | [7] 0.02 | vorinostat 0.03 | silmitasertib 0.015 | [8] -0.009 | entospletinib -0.025

TSC22D2 (UniProt O75157)
inactive: nilotinib 0.038 | [1] -0.008 | dasatinib -0.016 | [2] -0.118 | [3] -0.047 | quisinostat -0.041 | tipifarnib 0.03 | [4] -0.039 | [5] 0.015 | [6] 0.049 | [7] 0.028 | vorinostat -0.004 | silmitasertib -0.035 | [8] 0.003 | entospletinib 0.018

TRMT10A (UniProt Q8TBZ6)
inactive: nilotinib 0.008 | [1] -0.027 | dasatinib -0.07 | [2] 0.019 | [3] 0.013 | quisinostat -0.028 | tipifarnib 0.005 | [4] 0.01 | [5] 0.028 | [6] -0.01 | [7] 0.032 | vorinostat 0.072 | silmitasertib -0.058 | [8] -0.063 | entospletinib -0.012

TRMT61B (UniProt Q9BVS5)
inactive: nilotinib 0.014 | [1] 0.03 | dasatinib 0.065 | [2] -0.032 | [3] -0.014 | quisinostat 0.02 | tipifarnib -0.001 | [4] 0.005 | [5] 0.026 | [6] -0.009 | [7] -0.003 | vorinostat 0.032 | silmitasertib -0.051 | [8] -0.072 | entospletinib -0.032

TTC33 (UniProt Q6PID6)
inactive: nilotinib 0.015 | [1] -0.003 | dasatinib -0.025 | [2] 0.141 | [3] 0.082 | quisinostat -0.04 | tipifarnib 0.142 | [4] 0.027 | [5] 0.047 | [6] 0.037 | [7] 0.057 | vorinostat -0.244 | silmitasertib -0.011 | [8] 0.015 | entospletinib -0.061

TRAPPC13 isoform 4 (UniProt A5PLN9)
inactive: nilotinib -0.024 | [1] 0.021 | dasatinib -0.093 | [2] -0.049 | [3] 0.014 | quisinostat -0.088 | tipifarnib -0.017 | [4] 0.018 | [5] -0.01 | [6] 0.025 | [7] -0.099 | vorinostat -0.163 | silmitasertib 0.075 | [8] -0.003 | entospletinib -0.013

2 consecutive records out of the list so far, quoted:
TTC33 (UniProt Q6PID6)
inactive: nilotinib 0.015 | [1] -0.003 | dasatinib -0.025 | [2] 0.141 | [3] 0.082 | quisinostat -0.04 | tipifarnib 0.142 | [4] 0.027 | [5] 0.047 | [6] 0.037 | [7] 0.057 | vorinostat -0.244 | silmitasertib -0.011 | [8] 0.015 | entospletinib -0.061

TRAPPC13 isoform 4 (UniProt A5PLN9)
inactive: nilotinib -0.024 | [1] 0.021 | dasatinib -0.093 | [2] -0.049 | [3] 0.014 | quisinostat -0.088 | tipifarnib -0.017 | [4] 0.018 | [5] -0.01 | [6] 0.025 | [7] -0.099 | vorinostat -0.163 | silmitasertib 0.075 | [8] -0.003 | entospletinib -0.013

The results go on.

TRMT112 (UniProt Q9UI30)
inactive: nilotinib 0.051 | [1] -0.006 | dasatinib -0.015 | [2] -0.033 | [3] -0.032 | quisinostat 0.035 | tipifarnib 0.052 | [4] -0.029 | [5] 0.005 | [6] 0.017 | [7] -0.1 | vorinostat 0.032 | silmitasertib -0.024 | [8] 0.067 | entospletinib -0.006

TSTA3 (UniProt Q13630)
inactive: nilotinib -0.026 | [1] 0.004 | dasatinib 0.027 | [2] -0.053 | [3] -0.008 | quisinostat 0.161 | tipifarnib 0.046 | [4] -0.005 | [5] 0.014 | [6] 0.026 | [7] 0.035 | vorinostat -0.078 | silmitasertib 0 | [8] 0.044 | entospletinib 0.022

TSR1 (UniProt Q2NL82)
inactive: nilotinib 0.077 | [1] 0.001 | dasatinib -0.015 | [2] 0.026 | [3] 0.045 | quisinostat -0.025 | tipifarnib -0.003 | [4] 0.052 | [5] -0.001 | [6] -0.019 | [7] 0.012 | vorinostat -0.089 | silmitasertib 0.043 | [8] 0.043 | entospletinib 0.012

TRAPPC3 (UniProt O43617)
inactive: nilotinib 0.009 | [1] 0.026 | dasatinib 0.018 | [2] -0.054 | [3] -0.011 | quisinostat 0.102 | tipifarnib 0.013 | [4] -0.025 | [5] -0.017 | [6] 0.077 | [7] -0.029 | vorinostat 0.035 | silmitasertib 0.068 | [8] -0.062 | entospletinib 0.019

TRIM44 (UniProt Q96DX7)
inactive: nilotinib -0.016 | [1] 0.001 | dasatinib 0.073 | [2] -0.036 | [3] -0.008 | quisinostat 0.035 | tipifarnib 0.006 | [4] 0.023 | [5] -0.011 | [6] 0.044 | [7] 0.024 | vorinostat -0.031 | silmitasertib 0.062 | [8] -0.015 | entospletinib -0.051

TTC27 (UniProt Q6P3X3)
active: vorinostat -0.403
inactive: nilotinib -0.018 | [1] 0.027 | dasatinib -0.009 | [2] -0.031 | [3] 0.01 | quisinostat -0.047 | tipifarnib -0.03 | [4] 0.057 | [5] -0.028 | [6] -0.023 | [7] -0.027 | silmitasertib 0.053 | [8] -0.06 | entospletinib -0.002

TSEN54 (UniProt Q7Z6J9)
inactive: nilotinib -0.1 | [1] 0.053 | dasatinib -0.033 | [2] 0.156 | [3] -0.049 | quisinostat -0.117 | tipifarnib 0.015 | [4] 0.065 | [5] 0.112 | [6] 0.023 | [7] -0.003 | vorinostat -0.193 | silmitasertib -0.021 | [8] 0.009 | entospletinib 0.033

TTF2 (UniProt Q9UNY4)
active: vorinostat -0.317
inactive: nilotinib -0.008 | [1] -0.062 | dasatinib -0.012 | [2] -0.023 | [3] 0.018 | quisinostat -0.042 | tipifarnib 0.004 | [4] 0.02 | [5] 0.019 | [6] -0.067 | [7] 0.02 | silmitasertib 0.008 | [8] -0.032 | entospletinib -0.074

TTC17 (UniProt Q96AE7)
inactive: nilotinib -0.01 | [1] 0.047 | dasatinib -0.041 | [2] -0.004 | [3] 0.054 | quisinostat -0.013 | tipifarnib -0.081 | [4] -0.037 | [5] -0.024 | [6] -0.005 | [7] 0.005 | vorinostat 0.008 | silmitasertib -0.003 | [8] -0.015 | entospletinib 0.034

TRMT1 (UniProt Q9NXH9)
inactive: nilotinib -0.021 | [1] -0.002 | dasatinib -0.014 | [2] 0.021 | [3] -0.009 | quisinostat -0.002 | tipifarnib 0.028 | [4] 0.005 | [5] 0 | [6] 0.027 | [7] -0.044 | vorinostat -0.061 | silmitasertib 0.034 | [8] -0.024 | entospletinib -0.028

TRMT12 (UniProt Q53H54)
active: vorinostat -0.35
inactive: nilotinib -0.02 | [1] -0.005 | dasatinib -0.032 | [2] 0.062 | [3] -0.017 | quisinostat -0.074 | tipifarnib -0.007 | [4] 0.117 | [5] -0.009 | [6] 0.004 | [7] 0.045 | silmitasertib -0.039 | [8] -0.043 | entospletinib -0.125

TRAPPC2 isoform 3 (UniProt P0DI81)
inactive: nilotinib 0.009 | [1] 0.033 | dasatinib 0.055 | [2] -0.048 | [3] 0.022 | quisinostat -0.13 | tipifarnib 0.022 | [4] 0.017 | [5] 0.018 | [6] -0.001 | [7] -0.09 | vorinostat -0.051 | silmitasertib -0.09 | [8] -0.061 | entospletinib 0.017

TRAF2 isoform 2 (UniProt Q12933)
inactive: nilotinib -0.02 | [1] 0.008 | dasatinib -0.024 | [2] 0.042 | [3] 0.01 | quisinostat -0.024 | tipifarnib 0.005 | [4] -0.016 | [5] 0.001 | [6] -0.016 | [7] 0.014 | silmitasertib 0.024 | [8] 0.031 | entospletinib 0.005
active: vorinostat -0.269
